US10035814B2, “Guanine analogs as telomerase substrates and telomere length affectors” (Geron Corporation, priority 2011, dated 2018)
For part of its entries the source gives two or more results. This list holds those alone. The source may hold further records. The records of an entry appear to be repeats on other runs, samples or individuals.

Sequences of proteins named here, by UniProt entry; tags and fusion partners are left off.
UniProt O14746, whole entry: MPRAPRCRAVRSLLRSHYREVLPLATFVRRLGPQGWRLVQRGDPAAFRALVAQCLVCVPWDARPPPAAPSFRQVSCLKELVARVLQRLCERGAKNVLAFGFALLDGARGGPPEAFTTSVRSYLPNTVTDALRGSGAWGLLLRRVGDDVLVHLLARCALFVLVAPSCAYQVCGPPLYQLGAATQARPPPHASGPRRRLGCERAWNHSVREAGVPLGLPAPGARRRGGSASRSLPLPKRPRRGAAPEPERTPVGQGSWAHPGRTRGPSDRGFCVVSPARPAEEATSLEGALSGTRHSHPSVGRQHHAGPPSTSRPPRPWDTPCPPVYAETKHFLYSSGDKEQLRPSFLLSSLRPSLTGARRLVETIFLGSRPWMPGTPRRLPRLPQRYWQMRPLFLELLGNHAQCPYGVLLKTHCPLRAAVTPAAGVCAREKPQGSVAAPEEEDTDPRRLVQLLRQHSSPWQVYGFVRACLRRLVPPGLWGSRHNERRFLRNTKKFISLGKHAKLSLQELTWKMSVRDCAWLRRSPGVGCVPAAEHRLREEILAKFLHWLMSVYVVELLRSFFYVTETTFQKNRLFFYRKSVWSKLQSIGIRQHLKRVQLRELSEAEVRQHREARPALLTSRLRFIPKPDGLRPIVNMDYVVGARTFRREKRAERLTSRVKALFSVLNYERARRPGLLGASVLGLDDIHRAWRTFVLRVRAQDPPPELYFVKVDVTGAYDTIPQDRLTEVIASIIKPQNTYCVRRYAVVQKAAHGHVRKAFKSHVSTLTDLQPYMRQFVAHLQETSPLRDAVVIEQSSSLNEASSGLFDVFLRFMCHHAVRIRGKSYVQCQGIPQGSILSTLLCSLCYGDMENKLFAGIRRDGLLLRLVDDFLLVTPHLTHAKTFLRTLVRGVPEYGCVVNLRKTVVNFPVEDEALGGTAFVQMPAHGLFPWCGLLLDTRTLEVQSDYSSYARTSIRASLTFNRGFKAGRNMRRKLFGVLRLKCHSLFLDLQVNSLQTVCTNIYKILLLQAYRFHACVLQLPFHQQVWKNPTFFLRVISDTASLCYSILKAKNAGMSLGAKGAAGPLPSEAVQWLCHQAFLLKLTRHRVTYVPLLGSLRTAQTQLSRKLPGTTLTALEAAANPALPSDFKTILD
UniProt Q9NPE3, whole entry partner: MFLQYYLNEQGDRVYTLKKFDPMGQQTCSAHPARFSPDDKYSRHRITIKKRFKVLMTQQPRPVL
UniProt O60832, whole entry partner: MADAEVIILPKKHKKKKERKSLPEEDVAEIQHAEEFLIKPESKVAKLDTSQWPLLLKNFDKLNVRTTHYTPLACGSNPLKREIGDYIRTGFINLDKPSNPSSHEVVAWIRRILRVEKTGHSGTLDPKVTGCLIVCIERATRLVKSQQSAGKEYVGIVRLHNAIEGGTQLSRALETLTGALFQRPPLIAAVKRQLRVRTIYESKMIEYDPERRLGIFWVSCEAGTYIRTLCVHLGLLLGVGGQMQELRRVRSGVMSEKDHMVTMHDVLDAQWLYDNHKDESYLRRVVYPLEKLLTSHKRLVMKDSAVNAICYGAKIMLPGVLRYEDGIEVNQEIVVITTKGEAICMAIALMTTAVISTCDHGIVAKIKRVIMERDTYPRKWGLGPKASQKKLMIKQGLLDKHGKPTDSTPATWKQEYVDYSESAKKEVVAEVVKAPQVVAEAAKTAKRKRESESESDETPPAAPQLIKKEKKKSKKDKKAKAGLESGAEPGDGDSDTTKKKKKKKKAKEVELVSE
UniProt Q9NY12, whole entry partner: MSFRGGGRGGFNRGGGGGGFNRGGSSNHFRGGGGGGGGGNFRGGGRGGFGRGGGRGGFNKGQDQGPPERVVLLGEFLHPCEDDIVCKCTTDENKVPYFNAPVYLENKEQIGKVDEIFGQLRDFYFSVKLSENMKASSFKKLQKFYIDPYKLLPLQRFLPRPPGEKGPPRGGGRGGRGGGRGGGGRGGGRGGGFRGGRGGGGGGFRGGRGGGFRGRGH
UniProt Q9BUR4, whole entry partner: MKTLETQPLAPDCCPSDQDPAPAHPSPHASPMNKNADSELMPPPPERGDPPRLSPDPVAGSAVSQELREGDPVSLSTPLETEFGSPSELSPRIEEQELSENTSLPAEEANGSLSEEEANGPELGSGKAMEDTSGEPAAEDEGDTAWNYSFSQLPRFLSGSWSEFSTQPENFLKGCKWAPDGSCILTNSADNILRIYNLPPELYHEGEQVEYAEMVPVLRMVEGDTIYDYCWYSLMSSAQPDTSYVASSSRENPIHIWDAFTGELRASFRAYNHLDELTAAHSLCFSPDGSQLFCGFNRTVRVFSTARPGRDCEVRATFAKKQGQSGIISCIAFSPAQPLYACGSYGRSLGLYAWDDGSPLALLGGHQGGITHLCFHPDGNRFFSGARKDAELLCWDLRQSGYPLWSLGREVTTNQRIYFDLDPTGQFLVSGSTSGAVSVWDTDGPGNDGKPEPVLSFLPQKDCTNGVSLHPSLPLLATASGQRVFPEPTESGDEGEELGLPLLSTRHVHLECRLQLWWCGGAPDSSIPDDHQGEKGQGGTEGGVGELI
UniProt Q9NX24, whole entry partner: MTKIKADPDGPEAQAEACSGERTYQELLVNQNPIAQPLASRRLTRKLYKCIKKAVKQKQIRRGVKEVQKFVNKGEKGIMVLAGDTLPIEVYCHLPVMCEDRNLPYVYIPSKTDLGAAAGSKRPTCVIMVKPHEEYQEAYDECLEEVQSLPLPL

Target: telomerase in HT3 cells (Homo sapiens (Human), UniProt O14746)
Experiment: Ex vivo TRAP assay in HT3 cells
Details: read-out: ExVivo TRAP EC50 (μM)- 3 Day Assay, 3 days
Procedure: Telomerase inhibition is observed in cells following the addition of the prodrugs (R)-PMPG-diisopropyloxy ester or (S)-PMPG-diisopropyloxy ester. HT3 cells were treated for three days with increasing concentrations of PMPG-diisopropyloxy ester ranging from 0.2 μM to 20 μM. Cells (HT3 RPMI+10% PBS) were incubated with compound for 24 hr after which PSTS primer (phosphorothioate-d(AATCCGTCGAGCAGAGTT (SEQ ID NO: 6) containing a 5′ Cy-5 label) (7.5 μM) and fresh compound are added for an additional 24 hr. Cells were lysed and endogenous telomerase inactivated by heating (15 min, 75° C.). Products were amplified by 30 cycles of PCR under TRAP conditions set forth above and quantified. The results of two independent experiments are shown in Table 4.
HT3 cells were treated for three days with increasing concentrations of one or more of the indicated compounds ranging from 0.2 μM to 20 μM. Cells (HT3 RPMI+10% FBS) were incubated with compound for 24 hours, after which PSTS primer (phosphorothioate-d AATCCGTCGAGCAGAGTT (SEQ ID NO: 6) containing a 5′ Cy-5 label) (7.5 μM) and fresh compound were added for an additional 24 hours. […] Products were amplified by 30 cycles of PCR under TRAP conditions set forth in Kim et al., Science 266:2011, […] (which reference is incorporated herein in its entirety) and quantified.

EC50: 3.9 µM and 17.8 µM
Compound: C=C(COCP(=O)(OCOC(=O)OC(C)C)OCOC(=O)OC(C)C)Cn1cnc2c(=O)[nH]c(N)nc21
